These are yes or no findings as the source states them, for the method shown. In cells and extracts the contact can be indirect. Some entries that bind do so weakly or less than the wild type.
How the values were obtained:
[1] = target: Ferritin heavy chain 1 (FTH1), endogenous in mouse primary myoblasts (mouse (endogenous in primary myoblasts)) (UniProt P09528); test: co-IP; reciprocal co-immunoprecipitation of endogenous proteins with SMURF1 or FTH1 antibody or control IgG, protein A/G plus-agarose, lysate of primary myoblasts cultured 4 days in differentiation medium, immunoblot
[2] = target: Flag-tagged FTH1 expressed in HEK293T cells (mouse) (UniProt P09528); test: co-IP; reciprocal co-immunoprecipitation of GFP-tagged SMURF1 and Flag-tagged FTH1 in HEK293T cells, immunoblot

Chains of the proteins cited; added tags and fusions are not shown.
UniProt P09528: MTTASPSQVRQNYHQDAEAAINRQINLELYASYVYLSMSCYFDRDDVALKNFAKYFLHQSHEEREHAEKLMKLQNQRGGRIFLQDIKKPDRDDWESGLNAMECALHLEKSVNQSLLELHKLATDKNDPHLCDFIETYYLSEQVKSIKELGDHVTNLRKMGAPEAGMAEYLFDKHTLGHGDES
UniProt Q9CUN6: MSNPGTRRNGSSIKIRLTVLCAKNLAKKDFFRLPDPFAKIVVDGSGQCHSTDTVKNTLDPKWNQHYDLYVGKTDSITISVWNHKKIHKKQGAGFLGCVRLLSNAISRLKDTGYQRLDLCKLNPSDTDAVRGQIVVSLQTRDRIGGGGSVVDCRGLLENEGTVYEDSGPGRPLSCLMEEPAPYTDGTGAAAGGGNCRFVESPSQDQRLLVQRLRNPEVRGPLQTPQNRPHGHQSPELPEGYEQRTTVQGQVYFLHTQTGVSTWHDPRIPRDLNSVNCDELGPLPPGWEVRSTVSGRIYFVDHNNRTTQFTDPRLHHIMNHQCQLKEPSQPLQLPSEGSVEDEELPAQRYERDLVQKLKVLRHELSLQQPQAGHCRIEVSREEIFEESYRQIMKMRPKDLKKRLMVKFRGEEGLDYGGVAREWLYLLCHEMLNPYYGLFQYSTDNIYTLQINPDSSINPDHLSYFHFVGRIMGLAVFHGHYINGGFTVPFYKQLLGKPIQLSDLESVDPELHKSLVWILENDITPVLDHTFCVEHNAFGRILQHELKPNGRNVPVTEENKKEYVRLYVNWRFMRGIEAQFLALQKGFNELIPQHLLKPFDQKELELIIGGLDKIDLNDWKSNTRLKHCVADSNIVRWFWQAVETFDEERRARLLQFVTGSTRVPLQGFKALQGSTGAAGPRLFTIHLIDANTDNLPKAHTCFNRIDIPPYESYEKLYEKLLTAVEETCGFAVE

Substance: E3 ubiquitin-protein ligase SMURF1, endogenous in mouse primary myoblasts (from UniProt Q9CUN6 1-731) (enzyme)
- binding [1]: binds

Substance: GFP-tagged SMURF1 expressed in HEK293T cells (from UniProt Q9CUN6 1-731) (enzyme)
- binding [2]: binds
